From the supplement of paper PMC10849652
This is one part of the list.

The chains behind the UniProt entries cited, without tags or fusion partners. Where a name states a change or a piece, a line headed by the entry shows the natural chain unless it says otherwise.
UniProt Q9NRR8: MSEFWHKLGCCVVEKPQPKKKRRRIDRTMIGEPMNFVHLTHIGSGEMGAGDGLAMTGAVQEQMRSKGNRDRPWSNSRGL
UniProt P53567: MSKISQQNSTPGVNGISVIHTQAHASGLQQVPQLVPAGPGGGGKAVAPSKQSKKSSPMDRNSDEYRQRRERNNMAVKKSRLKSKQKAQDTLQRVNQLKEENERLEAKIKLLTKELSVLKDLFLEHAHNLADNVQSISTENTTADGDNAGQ
UniProt Q9UQ88: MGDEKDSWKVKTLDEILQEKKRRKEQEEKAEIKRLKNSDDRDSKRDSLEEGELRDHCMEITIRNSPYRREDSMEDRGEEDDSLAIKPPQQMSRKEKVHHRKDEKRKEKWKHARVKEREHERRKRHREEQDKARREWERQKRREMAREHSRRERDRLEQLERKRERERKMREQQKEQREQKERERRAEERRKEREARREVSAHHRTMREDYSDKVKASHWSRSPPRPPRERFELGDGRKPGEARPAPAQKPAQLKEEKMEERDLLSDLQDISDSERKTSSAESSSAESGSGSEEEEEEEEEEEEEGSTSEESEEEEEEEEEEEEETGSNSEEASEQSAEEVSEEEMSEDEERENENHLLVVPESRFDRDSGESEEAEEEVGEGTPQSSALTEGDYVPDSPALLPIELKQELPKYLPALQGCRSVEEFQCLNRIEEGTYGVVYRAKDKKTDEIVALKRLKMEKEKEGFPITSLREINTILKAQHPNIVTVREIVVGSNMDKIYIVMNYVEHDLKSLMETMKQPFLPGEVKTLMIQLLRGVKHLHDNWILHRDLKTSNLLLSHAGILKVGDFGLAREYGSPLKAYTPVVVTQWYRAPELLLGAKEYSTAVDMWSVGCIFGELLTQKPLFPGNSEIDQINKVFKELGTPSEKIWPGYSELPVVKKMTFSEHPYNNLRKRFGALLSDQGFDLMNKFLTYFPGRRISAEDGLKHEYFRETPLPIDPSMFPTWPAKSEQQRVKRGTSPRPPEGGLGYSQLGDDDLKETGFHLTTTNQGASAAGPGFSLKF
UniProt Q9BXL8: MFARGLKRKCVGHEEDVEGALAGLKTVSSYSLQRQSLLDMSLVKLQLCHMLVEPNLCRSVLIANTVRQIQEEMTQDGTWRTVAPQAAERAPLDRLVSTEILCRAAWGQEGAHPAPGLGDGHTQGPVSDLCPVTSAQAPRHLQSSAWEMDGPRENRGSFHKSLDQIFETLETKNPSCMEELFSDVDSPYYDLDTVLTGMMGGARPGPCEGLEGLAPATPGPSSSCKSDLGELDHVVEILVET
UniProt Q9UIB8: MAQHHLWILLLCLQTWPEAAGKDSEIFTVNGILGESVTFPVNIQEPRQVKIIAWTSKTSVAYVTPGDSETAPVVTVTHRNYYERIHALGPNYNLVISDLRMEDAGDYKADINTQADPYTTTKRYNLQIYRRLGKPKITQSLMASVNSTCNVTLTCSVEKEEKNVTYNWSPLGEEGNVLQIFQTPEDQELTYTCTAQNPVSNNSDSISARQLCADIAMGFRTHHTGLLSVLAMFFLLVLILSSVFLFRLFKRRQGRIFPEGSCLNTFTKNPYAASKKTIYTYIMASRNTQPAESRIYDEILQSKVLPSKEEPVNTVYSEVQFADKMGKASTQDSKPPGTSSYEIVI
UniProt Q9UPV0, whole entry, looked up: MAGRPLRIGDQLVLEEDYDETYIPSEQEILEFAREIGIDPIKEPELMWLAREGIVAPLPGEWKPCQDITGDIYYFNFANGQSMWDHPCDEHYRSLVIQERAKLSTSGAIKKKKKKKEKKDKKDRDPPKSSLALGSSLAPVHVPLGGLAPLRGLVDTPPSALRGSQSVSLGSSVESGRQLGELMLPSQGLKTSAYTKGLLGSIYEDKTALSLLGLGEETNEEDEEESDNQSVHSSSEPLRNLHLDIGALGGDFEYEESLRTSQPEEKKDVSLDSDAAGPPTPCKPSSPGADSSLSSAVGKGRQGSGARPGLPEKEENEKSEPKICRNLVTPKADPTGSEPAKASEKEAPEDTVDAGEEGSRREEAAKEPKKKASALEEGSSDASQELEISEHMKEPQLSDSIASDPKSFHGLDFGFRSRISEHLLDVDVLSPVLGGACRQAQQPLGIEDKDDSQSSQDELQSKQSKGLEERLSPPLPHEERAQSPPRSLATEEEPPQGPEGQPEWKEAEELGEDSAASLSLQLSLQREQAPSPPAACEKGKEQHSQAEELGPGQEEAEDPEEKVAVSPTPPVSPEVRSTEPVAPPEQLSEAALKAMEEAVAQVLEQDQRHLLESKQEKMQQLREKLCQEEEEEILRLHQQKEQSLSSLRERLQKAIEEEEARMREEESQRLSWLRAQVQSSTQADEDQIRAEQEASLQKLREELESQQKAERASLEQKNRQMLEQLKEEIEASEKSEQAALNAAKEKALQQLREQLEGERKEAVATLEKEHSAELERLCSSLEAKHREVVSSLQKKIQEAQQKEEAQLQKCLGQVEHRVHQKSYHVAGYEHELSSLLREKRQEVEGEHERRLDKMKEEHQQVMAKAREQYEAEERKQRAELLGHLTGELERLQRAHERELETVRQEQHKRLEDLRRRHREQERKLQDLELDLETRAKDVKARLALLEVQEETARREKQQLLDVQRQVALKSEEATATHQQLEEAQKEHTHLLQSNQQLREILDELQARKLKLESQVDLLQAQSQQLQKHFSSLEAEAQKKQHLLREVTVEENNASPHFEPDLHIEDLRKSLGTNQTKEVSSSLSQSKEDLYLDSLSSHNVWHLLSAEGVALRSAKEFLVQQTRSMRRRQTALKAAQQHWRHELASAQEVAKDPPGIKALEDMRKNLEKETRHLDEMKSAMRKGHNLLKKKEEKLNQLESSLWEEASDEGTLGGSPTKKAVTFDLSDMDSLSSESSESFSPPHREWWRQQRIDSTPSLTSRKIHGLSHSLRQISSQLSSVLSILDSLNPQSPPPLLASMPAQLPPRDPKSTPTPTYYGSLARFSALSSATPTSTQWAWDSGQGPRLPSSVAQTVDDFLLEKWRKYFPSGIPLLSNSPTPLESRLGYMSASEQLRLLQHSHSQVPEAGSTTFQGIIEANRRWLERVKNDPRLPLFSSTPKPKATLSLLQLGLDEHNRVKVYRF
UniProt Q6NVV7: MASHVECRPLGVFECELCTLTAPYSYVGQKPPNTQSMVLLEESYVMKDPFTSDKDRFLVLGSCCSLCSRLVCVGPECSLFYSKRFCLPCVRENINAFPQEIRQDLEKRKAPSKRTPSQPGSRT
UniProt P21926: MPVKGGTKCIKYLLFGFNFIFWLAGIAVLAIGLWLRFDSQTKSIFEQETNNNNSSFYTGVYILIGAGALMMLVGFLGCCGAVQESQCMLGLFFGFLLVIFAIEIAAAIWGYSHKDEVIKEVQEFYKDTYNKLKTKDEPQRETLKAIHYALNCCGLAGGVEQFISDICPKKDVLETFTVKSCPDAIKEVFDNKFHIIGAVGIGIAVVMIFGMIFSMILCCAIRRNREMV
UniProt P07199: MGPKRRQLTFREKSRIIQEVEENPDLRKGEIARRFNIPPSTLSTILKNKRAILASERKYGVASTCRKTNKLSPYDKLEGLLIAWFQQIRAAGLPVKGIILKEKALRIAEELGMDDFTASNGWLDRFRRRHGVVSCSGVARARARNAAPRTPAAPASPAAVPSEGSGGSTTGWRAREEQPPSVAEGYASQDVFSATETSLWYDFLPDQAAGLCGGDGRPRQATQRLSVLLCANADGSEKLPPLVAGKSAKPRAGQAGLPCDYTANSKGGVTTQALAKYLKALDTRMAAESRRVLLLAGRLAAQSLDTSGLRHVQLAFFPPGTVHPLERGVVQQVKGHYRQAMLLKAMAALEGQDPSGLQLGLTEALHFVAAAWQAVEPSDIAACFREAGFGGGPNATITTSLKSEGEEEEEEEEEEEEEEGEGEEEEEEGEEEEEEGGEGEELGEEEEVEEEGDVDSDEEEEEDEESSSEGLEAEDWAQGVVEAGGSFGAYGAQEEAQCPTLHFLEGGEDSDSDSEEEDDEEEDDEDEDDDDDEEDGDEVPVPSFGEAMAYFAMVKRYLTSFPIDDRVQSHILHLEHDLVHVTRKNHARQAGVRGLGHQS
UniProt Q5SW79: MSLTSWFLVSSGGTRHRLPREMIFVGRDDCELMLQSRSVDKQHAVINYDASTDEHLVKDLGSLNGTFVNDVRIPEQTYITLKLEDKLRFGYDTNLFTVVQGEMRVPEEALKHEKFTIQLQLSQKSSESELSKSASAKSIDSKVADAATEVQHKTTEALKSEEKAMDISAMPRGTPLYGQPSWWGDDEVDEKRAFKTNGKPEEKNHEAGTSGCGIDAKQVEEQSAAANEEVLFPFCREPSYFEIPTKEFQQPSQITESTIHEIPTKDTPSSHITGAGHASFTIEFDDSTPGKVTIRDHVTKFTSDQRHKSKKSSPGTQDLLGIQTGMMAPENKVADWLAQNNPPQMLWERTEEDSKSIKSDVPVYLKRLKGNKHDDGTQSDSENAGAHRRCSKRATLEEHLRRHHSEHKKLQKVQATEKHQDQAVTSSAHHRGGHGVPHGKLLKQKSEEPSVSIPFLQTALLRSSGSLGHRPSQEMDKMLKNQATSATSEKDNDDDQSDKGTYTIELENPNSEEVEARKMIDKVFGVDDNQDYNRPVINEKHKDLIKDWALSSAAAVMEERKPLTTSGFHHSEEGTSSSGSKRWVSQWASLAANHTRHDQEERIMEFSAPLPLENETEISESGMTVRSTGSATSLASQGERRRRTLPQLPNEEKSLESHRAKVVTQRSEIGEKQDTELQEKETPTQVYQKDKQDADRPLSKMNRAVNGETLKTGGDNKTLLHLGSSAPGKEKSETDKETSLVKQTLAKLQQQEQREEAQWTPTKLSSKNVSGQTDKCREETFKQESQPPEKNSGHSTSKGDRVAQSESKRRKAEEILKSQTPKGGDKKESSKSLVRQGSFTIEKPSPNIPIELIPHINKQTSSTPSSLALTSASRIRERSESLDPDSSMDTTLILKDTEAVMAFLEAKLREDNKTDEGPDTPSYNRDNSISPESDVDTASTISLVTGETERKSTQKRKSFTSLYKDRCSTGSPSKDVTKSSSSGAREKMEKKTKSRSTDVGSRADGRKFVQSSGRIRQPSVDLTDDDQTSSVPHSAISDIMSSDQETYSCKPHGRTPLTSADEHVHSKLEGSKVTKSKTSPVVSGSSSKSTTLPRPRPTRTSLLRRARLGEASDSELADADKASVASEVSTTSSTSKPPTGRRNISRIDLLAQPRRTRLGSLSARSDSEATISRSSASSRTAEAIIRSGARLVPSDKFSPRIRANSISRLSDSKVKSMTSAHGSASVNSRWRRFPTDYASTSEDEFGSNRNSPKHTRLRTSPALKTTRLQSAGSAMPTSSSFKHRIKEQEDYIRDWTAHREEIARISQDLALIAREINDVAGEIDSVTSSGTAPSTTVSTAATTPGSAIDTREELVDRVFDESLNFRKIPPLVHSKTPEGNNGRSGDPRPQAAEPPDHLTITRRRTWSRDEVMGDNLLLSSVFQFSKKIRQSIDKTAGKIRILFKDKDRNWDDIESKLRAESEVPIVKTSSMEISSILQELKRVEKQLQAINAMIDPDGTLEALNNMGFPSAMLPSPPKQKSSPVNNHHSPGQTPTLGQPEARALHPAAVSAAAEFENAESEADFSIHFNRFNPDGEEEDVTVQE

Tests used:
Test in all cases: log2 fold change, soluble protein after heating vs DMSO (PISA); higher = thermal stabilisation; K562 lysate, 10 uM; active = over 0.2 and 3.5 SD of the protein, either way, in both replicates (recomputed)
erlotinib = compound: C#Cc1cccc(Nc2ncnc3cc(OCCOC)c(OCCOC)cc23)c1 [erlotinib]
Outline: (§1)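 K562 pellets were dounce-homogenised in PBS pH 7.4 containing 1 mM MgCl2, and the crude extract, at 1 mg/mL protein, was exposed to 10 μM compound for 30 min. Aliquots were heated for 3 min across 48°C-58°C, pooled, brought to 0.5% NP-40 at 4°C and spun at 21,000xg for 90 min, with the supernatant taken as soluble protein. TMTpro 16plex LC-MS/MS with equalised channel sums quantified that protein. Values are log-two fold changes in thermal stability relative to solvent controls, taken from duplicates.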

[1] = compound: C1=CC(=CC=C1C2=NC3=C(N2)C=C(C=C3)C(=O)N)OC4=CC=C(C=C4)Cl
Outline: as §1

[2] = compound: C1=CC=C(C=C1)C2=NC(=C(N2)C3=CC=NC=C3)C4=CC(=C(C=C4)Cl)O
Outline: as §1

IRAK-1-4 Inhibitor I = compound: C1COCCN1CCN2C3=CC=CC=C3N=C2NC(=O)C4=CC(=CC=C4)[N+](=O)[O-] [IRAK-1-4 Inhibitor I]
Outline: as §1

[3] = compound: C1=CC2=NC=CN=C2C=C1/C=C/3\C(=O)NC(=O)S3
Outline: as §1

[4] = compound: C1CCN(C1)C(=O)NC2=CC=CC(=C2)NC3=NC=C(C(=N3)NCCC4=CN=CN4)Br
Outline: as §1

[5] = compound: C1CN(CCC1(CC2=CC=C(C=C2)Cl)N)C3=NC=NC4=C3C=CN4
Outline: as §1

[6] = compound: C/C(=N\NC(=O)C1=CC(=CC=C1)S(=O)(=O)N2CCOCC2)/C3=C(C=CC(=C3)Cl)O
Outline: as §1

[7] = compound: C1=CC2=C(C=CC(=C2)/C=C\3/C(=O)NC(=NCC4=CC=CS4)S3)N=C1
Outline: as §1

[8] = compound: C1=CC=C2C(=C1)C3=NNC4=CC=CC(=C43)C2=O
Outline: as §1

Measured: log2 fold change

CEP72 (UniProt Q9P209)
inactive: erlotinib -0.012 | [1] -0.015 | [2] 0.086 | IRAK-1-4 Inhibitor I 0.079

CDC42SE1 (UniProt Q9NRR8)
inactive: [3] 0.032

CEP104 (UniProt O60308)
inactive: [2] -0.069 | IRAK-1-4 Inhibitor I -0.015

CDKN3 (UniProt Q16667)
inactive: [3] -0.045 | [4] 0.093 | [5] 0.04

CFL1 (UniProt E9PP50)
inactive: [3] -0.082 | [4] -0.38 | [5] -0.317

CEBPG (UniProt P53567)
inactive: [3] -0.019 | [2] -0.067 | IRAK-1-4 Inhibitor I 0.016

CENPV (UniProt Q7Z7K6)
inactive: [6] -0.033 | [7] 0.013 | [3] -0.093 | [2] -0.193 | [8] 0.015 | [4] -0.037 | [5] 0.012 | IRAK-1-4 Inhibitor I 0.013

Reprinted at random: 3 entries already listed.
CEBPG (UniProt P53567)
inactive: [3] -0.019 | [2] -0.067 | IRAK-1-4 Inhibitor I 0.016

CENPV (UniProt Q7Z7K6)
inactive: [6] -0.033 | [7] 0.013 | [3] -0.093 | [2] -0.193 | [8] 0.015 | [4] -0.037 | [5] 0.012 | IRAK-1-4 Inhibitor I 0.013

CDC42SE1 (UniProt Q9NRR8)
inactive: [3] 0.032

(listing goes on)

CENPC (UniProt Q03188)
inactive: erlotinib 0.111 | [1] 0.084 | [2] -0.063 | [4] -0.001 | [5] 0.021 | IRAK-1-4 Inhibitor I 0.052

CEP63 (UniProt Q96MT8)
inactive: erlotinib 0.263 | [1] 0.221 | [4] 0.013 | [5] -0.013

CDC37 (UniProt K7EL68)
inactive: [6] 0.01 | [7] -0.094 | [3] 0.084 | [8] -0.049

CEP57L1 (UniProt Q8IYX8)
inactive: erlotinib -0.064 | [1] 0.118 | [3] -0.021 | [2] -0.041 | [4] -0.013 | [5] 0.101 | IRAK-1-4 Inhibitor I 0.35

CDK11A (UniProt Q9UQ88)
inactive: erlotinib 0.053 | [1] -0.128 | [3] -0.037 | [2] 0.027 | IRAK-1-4 Inhibitor I -0.009

CEP68 (UniProt Q76N32)
inactive: erlotinib 0.008 | [1] 0.108 | [4] 0.135 | [5] 0.035

CFLAR (UniProt O15519)
inactive: [6] 0.466 | [7] -0.138 | [2] 0.007 | [8] 0.04 | [4] -0.074 | [5] 0.079 | IRAK-1-4 Inhibitor I -0.032

CDC42BPG (UniProt Q6DT37)
inactive: [2] 0.159 | IRAK-1-4 Inhibitor I 0.156

CDCA4 (UniProt Q9BXL8)
inactive: [6] -0.121 | [7] 0.015 | [2] 0.165 | [8] 0 | IRAK-1-4 Inhibitor I 0.072

CD84 (UniProt Q9UIB8)
inactive: [3] -0.065

CEP128 (UniProt Q6ZU80)
inactive: [6] -0.069 | [7] 0 | [3] -0.234 | [2] 0.236 | [8] -0.102 | [4] -0.138 | [5] -0.015 | IRAK-1-4 Inhibitor I -0.212

CEP57 (UniProt Q86XR8)
inactive: erlotinib -0.026 | [1] -0.023 | [4] 0.028 | [5] -0.082

CDC27 (UniProt G5EA36)
inactive: erlotinib 0 | [1] -0.057 | [3] -0.159 | [2] -0.066 | IRAK-1-4 Inhibitor I -0.05

CENPT (UniProt Q96BT3)
inactive: erlotinib -0.087 | [1] -0.246

CEP164 (UniProt Q9UPV0)
inactive: erlotinib -0.049 | [1] -0.151 | [3] 0.004

CDC6 (UniProt Q99741)
inactive: erlotinib 0.072 | [1] 0.137 | [2] 0.111 | IRAK-1-4 Inhibitor I 0.055

CDC42EP2 (UniProt O14613)
inactive: [6] -0.057 | [7] 0.06 | [2] -0.215 | [8] 0.06 | IRAK-1-4 Inhibitor I -0.315

CHAC1 (UniProt Q9BUX1)
inactive: [6] 0.134 | [7] -0.084 | [3] 0.969 | [8] 0.031

CDKL5 (UniProt O76039)
inactive: [6] -0.216 | [7] -0.08 | [8] 0.339 | [4] 0.423 | [5] 0.085

CENPM (UniProt Q9NSP4)
inactive: erlotinib 0.051 | [1] 0.096 | [3] -0.064 | [2] 0.075 | [4] -0.15 | [5] -0.092 | IRAK-1-4 Inhibitor I -0.006

CDPF1 (UniProt Q6NVV7)
inactive: [2] -0.097 | IRAK-1-4 Inhibitor I 0.001

CERS5 (UniProt Q8N5B7)
inactive: erlotinib -0.022 | [1] -0.01 | [3] 0.011 | [2] -0.043 | [4] -0.1 | [5] -0.023 | IRAK-1-4 Inhibitor I 0.05

CD9 (UniProt P21926)
inactive: [6] 0.028 | [7] 0.018 | [8] 0.067 | [4] -0.227 | [5] -0.206

CDNF (UniProt Q49AH0)
inactive: [4] 0.026 | [5] -0.028

CENPB (UniProt P07199)
inactive: [4] -0.105 | [5] -0.142

CDC14A isoform 2 (UniProt Q9UNH5)
inactive: [2] 0.082 | IRAK-1-4 Inhibitor I -0.102

CEP170B (UniProt Q9Y4F5)
inactive: [6] 0.055 | [7] -0.038 | [8] -0.098 | [4] -0.031 | [5] -0.067

CEP295 isoform 3 (UniProt Q9C0D2)
inactive: erlotinib -0.063 | [1] -0.02 | [3] 0.051 | [2] -0.092 | [4] 0.015 | [5] 0.111 | IRAK-1-4 Inhibitor I -0.143

CENPX (UniProt A8MT69)
inactive: [2] -0.001 | IRAK-1-4 Inhibitor I -0.173

CDT1 (UniProt Q9H211)
inactive: erlotinib -0.009 | [1] 0.067 | [3] -0.306 | [2] 0.044 | [4] -0.019 | [5] 0.012 | IRAK-1-4 Inhibitor I 0.003

CDC25A (UniProt P30304)
inactive: erlotinib 0.016 | [1] 0.085 | [2] 0 | IRAK-1-4 Inhibitor I 0.052

CEP170 isoform 2 (UniProt Q5SW79)
inactive: [4] -0.383 | [5] -0.111
